Measured values taken from article PMC4117452, “Immunolocalization of Anti-Hsf1 to the Acetabular Glands of Infectious Schistosomes Suggests a Non-Transcriptional Function for This Transcriptional Activator”.
Construct, isoform or probe ends are uncertain for at least one entry. Tags and fusion partners may be left off the protein sequences shown.

Target: T1, MBP-SmHsf1 (Schistosoma mansoni) (UniProt G4VTC5)
T1 sequence (looked up, limits assumed): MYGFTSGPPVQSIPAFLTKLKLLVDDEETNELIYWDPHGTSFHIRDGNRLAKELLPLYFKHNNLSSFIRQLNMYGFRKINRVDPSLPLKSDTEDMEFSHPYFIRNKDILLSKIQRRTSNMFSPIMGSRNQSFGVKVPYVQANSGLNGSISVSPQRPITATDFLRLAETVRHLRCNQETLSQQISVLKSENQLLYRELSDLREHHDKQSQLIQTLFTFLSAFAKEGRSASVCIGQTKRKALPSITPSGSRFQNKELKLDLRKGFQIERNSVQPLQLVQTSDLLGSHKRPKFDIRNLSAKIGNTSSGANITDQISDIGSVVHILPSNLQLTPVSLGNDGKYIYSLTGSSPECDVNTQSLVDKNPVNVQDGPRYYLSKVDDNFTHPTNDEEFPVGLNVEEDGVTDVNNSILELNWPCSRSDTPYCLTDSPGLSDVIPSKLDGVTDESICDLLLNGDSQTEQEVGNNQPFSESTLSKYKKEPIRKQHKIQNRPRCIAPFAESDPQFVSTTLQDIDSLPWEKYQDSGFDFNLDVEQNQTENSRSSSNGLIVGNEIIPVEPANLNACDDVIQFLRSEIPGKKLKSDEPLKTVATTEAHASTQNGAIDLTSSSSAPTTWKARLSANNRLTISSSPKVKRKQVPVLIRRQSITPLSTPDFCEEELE
Assay: EMSA
Conditions: 3.5 ug protein, 100 fmol probe, poly-dIdC; LightShift EMSA binding buffer with glycerol, MgCl2, poly-dIdC, NP-40 (concentrations, pH and temperature not stated), 30 min; 5% native PAGE, 0.5x TBE; recombinant protein; protein details: N-terminal MBP (pMAL-c5X); label: 5' biotin on forward strand

Sequence: TTAGAAGCCGCCGAGAGATCTAGAAAGTTCTAGTACAGATCTACGGAAGACTCTCCT (double strand) [oKI068(ds) HSE -112]
- binding result: binds
